Data on 39 compounds can be found in PubChem BioAssay AID2685 (National Center for Advancing Translational Sciences (NCATS), 2010).

This test is described as follows: qHTS Assay for Lipid Storage Modulators in Drosophila S3 Cells.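 For cell number change: cells counted by Cell Tracker Red CMTPX staining in the red channel.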 The following applies: BODIPY lipid droplet fluorescence, 18-24 h; for cell number change: measured here: cell count max response, cells fed with added oleic acid. The method, boiled down: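 Drosophila S3 cells loaded with oleic acid (400 uM, as added) and compounds at several concentrations; lipid droplets imaged by 488-nm laser-scanning cytometry, 500–530 nm intensity and object ratio to cell channel. Percent activity normalized to 20 uM Triacsin C.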

[1] abbreviates: measured here: lipid fluorescence (Fed channel) AC50, cells fed with added oleic acid.
The mark [2] stands for this setting: measured here: cell number channel AC50, cells fed with added oleic acid.

This is one part of the list. Further columns of the screen follow, without active or inactive calls. Compounds called inactive in the main read-out are mostly missing here. Potencies come from curve fits of mixed quality, noted in brackets.

Take `COc1ccc(CCCc2nnc(SCC(=O)Nc3ncc(C)s3)o2)cc1`: the cell number change was -48.5%.

As for `CCCCC1NC(=S)N(C2CCCCC2)C1=O` (stereo not drawn), the cell number change was -20.1%.

As to `CN1C(=O)c2ccc(C(=O)Nc3ccccc3O)cc2C1=O`, the cell number change is -2.11%. The half-maximal activity concentration (AC50) under setting [1] is 13 µM [rising, partial curve].

For the compound `Cc1csc(NC(=O)CSCc2c(C)noc2C)n1`, the cell number change is 45.6%. Under setting [2], the concentration at half-maximal activity (AC50) was 16.4 µM [rising, single point].

Regarding `Cc1c(C)n(CCC(=O)O)c2ccccc12`, the cell number change is -2.2%. In addition, under setting [2], the half-maximal activity concentration (AC50) was 0.184 µM [falling, full curve, poor fit].

Consider `Cc1ccc2oc(=O)n(CC(=O)N3CCOCC3)c2c1`, for which the cell number change worked out at 11.6%. Under setting [2], the half-maximal activity concentration (AC50) was 0.58 µM [falling, full curve, poor fit]. Also, the AC50 under setting [1] is 0.517 µM [falling, full curve].

Take `CNc1c(NS(=O)(=O)c2ccc(Br)cc2)c(=O)oc2ccccc12`: the cell number change was found to be 23.5%.

Regarding `COCCCNC(=O)Cn1ncc2ccsc2c1=O`, the cell number change is -4.63%. Also, the AC50 under setting [1] is 18.4 µM [falling, single point].

For the compound `Cc1ccc(S(=O)(=O)N2CCC(=O)N(C(COCc3cccc(C)c3)C(C)C)CC2)cc1` (stereo not drawn), the cell number change was -15.1%. Under setting [1], the concentration at half-maximal activity (AC50) is 8.2 µM [rising, partial curve].

In the case of `CSc1ncccc1C(=O)OCC(=O)NC1CCCCC1`, the cell number change is 8.23%. Moreover, the AC50 under setting [1] is 6.51 µM [falling, single point].

Take `COc1ccccc1N1CCN(CC(O)COc2ccc3c(c2)OCO3)CC1` (stereo not drawn): the cell number change amounted to 53.1%. Besides, the half-maximal activity concentration (AC50) under setting [2] is 29.1 µM [rising, single point].

For the compound `Cc1ccc(S(=O)(=O)N2CCN(C(=O)COC(=O)CSc3cc(C)ccc3C)CC2)c(C)c1`, the cell number change came out at 20.6%. The AC50 under setting [2] was 0.103 µM [rising, full curve, poor fit]. Moreover, under setting [1], the concentration at half-maximal activity (AC50) was 0.13 µM [rising, full curve].

Regarding `C=CCNC(=O)CN1CCN(C(c2ccccc2)c2ccccc2)CC1`, the cell number change was -38.6%. Besides, the concentration at half-maximal activity (AC50) under setting [2] was 11.6 µM [falling, partial curve].

On to `COc1ccc(CCNC(=O)C(=O)NCc2ccccc2C)cc1OC`, for which the cell number change was 76%. In addition, under setting [1], the concentration at half-maximal activity (AC50) was 29.1 µM [rising, single point].

Take `CC12C(=O)N(CCC(=O)O)C(=O)C1C1C=CC2C1` (stereo not drawn): the cell number change was -13.8%. Moreover, under setting [2], the concentration at half-maximal activity (AC50) was 0.0517 µM [falling, full curve, poor fit]. Moreover, under setting [1], the AC50 is 23.1 µM [falling, partial curve].

As to `O=CNc1ccc(S(=O)(=O)NCc2ccccc2)cc1`, the cell number change is 39.1%. Moreover, the AC50 under setting [2] was 16.4 µM [rising, single point].

For `COc1cc(OC)c(C2C(C(=O)N3CCOCC3)=C(C)NC3=C2C(=O)CC(C)(C)C3)cc1OC` (stereo not drawn), the cell number change is -61%. In addition, under setting [2], the AC50 is 29.1 µM [falling, single point]. The AC50 under setting [1] is 29.1 µM [falling, partial curve].

In the case of `O=C(CSc1nnc(-c2ccccn2)o1)Nc1ccc(F)cc1`, the cell number change is 6.23%.

With `Nc1cc(C(F)(F)F)cc2c1SCC(=O)N2`, the cell number change is 10.3%. In addition, the AC50 under setting [1] is 0.103 µM [rising, full curve, poor fit].

With `O=C(C1CCCO1)N1CCN(S(=O)(=O)c2ccc(F)cc2)CC1` (stereo not drawn), the cell number change was -50%. Moreover, the AC50 under setting [2] is 0.731 µM [falling, full curve].

As for `CCOC(=O)N1CCN(S(=O)(=O)c2cc(Br)cc3c2N(C(=O)CC)CC3)CC1`, the cell number change came out at 2.81%. Also, under setting [1], the half-maximal activity concentration (AC50) is 8.2 µM [falling, partial curve, poor fit].

Turning to `COc1cccc(/C=C2\SC(=S)N(CCC(=O)NC3C=CS(=O)(=O)C3)C2=O)c1` (stereo not drawn), the cell number change came to 9.37%.

For the compound `Cn1cccc1C(=O)OCc1cc(-c2ccco2)on1`, the cell number change is -5.71%. The AC50 under setting [1] is 5.17 µM [rising, partial curve, poor fit].

As to `COc1ccc(C2(CNC(C)=O)CCCC2)cc1OC`, the cell number change is -4.24%. In addition, the AC50 under setting [1] was 1.46 µM [falling, partial curve].

`CC(C)COC(=O)n1c(SCC(N)=O)nc2ccccc21`: the cell number change was 13.8%. For the same compound, the concentration at half-maximal activity (AC50) under setting [1] was 0.0731 µM [falling, partial curve, poor fit].

Regarding `CCN(CC(=O)NCc1cccs1)S(=O)(=O)c1ccccc1Cl`, the cell number change is -3.79%. The half-maximal activity concentration (AC50) under setting [1] is 0.58 µM [rising, full curve].

In the case of `CCc1ccccc1N/N=C(/C)c1c(O)cc(C)oc1=O`, the cell number change is 60.4%. In addition, the AC50 under setting [2] is 7.31 µM [rising, partial curve].

For `CC1(C)CC(=O)C(CC2=C(O)CC(C)(C)CC2=O)=C(O)C1`, the cell number change is -29.8%. Also, under setting [1], the AC50 is 1.3 µM [falling, partial curve].

For `CCOC(=O)Cc1nc(-c2cccc(C(F)(F)F)c2)no1`, the cell number change came to 31.8%. Besides, the half-maximal activity concentration (AC50) under setting [1] is 3.26 µM [rising, full curve].

In the case of `Cc1cc(S(=O)(=O)N2CCCCC2)ccc1OCC(=O)N1CCOCC1`, the cell number change is -10.2%. For the same compound, the AC50 under setting [1] is 29.1 µM [falling, single point].

Regarding `COc1cc(/C=C/c2cccc[n+]2C)ccc1OCC(=O)Nc1cccc(Cl)c1`, the cell number change came to 94.9%. In addition, the AC50 under setting [2] is 10.3 µM [rising, partial curve]. For the same compound, the AC50 under setting [1] was 29.1 µM [falling, single point].

On to `O=C(NNC(=S)Nc1cccc(C(F)(F)F)c1)c1cccc(Cl)c1`, for which the cell number change was -40.4%. For the same compound, the half-maximal activity concentration (AC50) under setting [2] is 16.4 µM [falling, single point]. For the same compound, the concentration at half-maximal activity (AC50) under setting [1] was 4.61 µM [falling, partial curve].

With `CCCCc1ccc(NC(=O)CSc2nc(=O)n(CCN(CC)CC)c3c2CCCC3)cc1`, under setting [2], the AC50 is 4.61 µM [rising, single point].

Consider `CC1C(=O)N2CCCc3cc(S(=O)(=O)N4CCN(c5ccc(F)cc5)CC4)cc1c32` (stereo not drawn), for which the cell number change is 31.3%. Further, the AC50 under setting [2] is 29.1 µM [rising, single point].

For `CC(OC(=O)CCc1nc2ccccc2c(=O)[nH]1)C(=O)Nc1ncc(Cl)cc1Cl` (stereo not drawn), the AC50 under setting [1] was 2.06 µM [falling, single point].

`O=C(c1cccc(S(=O)(=O)N2CCCCC2)c1)N1CCCCC1`: the cell number change was found to be 38.2%. In addition, the concentration at half-maximal activity (AC50) under setting [2] was 7.31 µM [rising, partial curve].

For the compound `Cc1cc(C)cc(NS(=O)(=O)c2ccc(Oc3ncc(C(F)(F)F)cc3Cl)cc2)c1`, the cell number change is -65.7%. In addition, the half-maximal activity concentration (AC50) under setting [2] is 32.6 µM [falling, partial curve]. In addition, the AC50 under setting [1] is 2.59 µM [falling, partial curve].

With `Cc1ccccc1NC(=O)C1CCN(c2cc(-c3ccccc3)nc3ncnn23)CC1`, the cell number change is -22%. Also, the half-maximal activity concentration (AC50) under setting [1] was 20.6 µM [falling, partial curve, poor fit].

Turning to `COc1ccccc1NS(=O)(=O)c1cc(NC(=O)CCC(=O)c2cccs2)ccc1Cl`, the cell number change stood at 18%. Moreover, under setting [1], the AC50 was 16.4 µM [rising, partial curve].
